# Some of these results come from one statement about several compounds together. At least one structure is not confirmed: it was looked up by name or label, or the drawing left a doubt.
# Key:
# [1] = tested on: Phakopsora pachyrhizi; assay: Glasshouse: curative action against soybean rust on soybeans caused by Phakopsora pachyrhizi; assay type: in vivo; details: 250 ppm, curative spray on soybean; untreated plants 90% infected
# [2] = tested on: Puccinia recondita; assay: Glasshouse: protective action against brown rust on wheat caused by Puccinia recondita; assay type: in vivo; details: 250 ppm, protective spray on wheat; untreated plants 90% infected
# [3] = tested on: Phytophthora infestans; assay type: cell-based; details: 125 ppm; pea-juice medium; 7 days
# [4] = tested on: Pyricularia oryzae; assay type: cell-based; details: 125 ppm; 7 days
SMILES,infection (rust development on leaves) [1],infection (rust development on leaves) [2],growth of the pathogen [3],growth of the pathogen [4]
O=S(=O)(NCc1ccnc(SC(F)F)n1)c1ccc(Oc2ncc(C(F)(F)F)cc2Cl)cc1 [Example I-2],less than or equal to 15%,less than or equal to 20%,,
COc1nccc(CNS(=O)(=O)c2ccc(Oc3ncccc3Cl)cc2)n1 [Example I-15],less than or equal to 15%,less than or equal to 20%,,
COc1nccc(CNS(=O)(=O)c2ccc(Oc3ccc(C(F)(F)F)cn3)cc2C)n1 [Example I-22],,less than or equal to 20%,at most 15%,at most 16%
COc1nccc(CNS(=O)(=O)c2ccc(Oc3nc(C(F)(F)F)nc(C)c3C)cc2)n1 [Example I-48],,,at most 15%,at most 16%
CCOc1nccc(CNS(=O)(=O)c2ccc(Oc3ncccc3C(F)(F)F)cc2)n1 [Example I-52],,,at most 15%,at most 16%
CSc1ncc(F)c(CNS(=O)(=O)c2ccc(Oc3ccc(C(F)(F)F)cn3)cc2)n1 [Example I-72],,,at most 15%,at most 16%
COc1nccc(CNS(=O)(=O)c2ccc(Oc3ccc(C(F)(F)F)cn3)c(F)c2)n1 [Example I-77],,,at most 15%,at most 16%
COc1nccc(CNS(=O)(=O)c2ccc(Oc3ncc(C(F)(F)F)cc3Cl)c(C)c2C)n1 [Example I-83],,,at most 15%,at most 16%
COc1cc(CNS(=O)(=O)c2ccc(Oc3ccc(C(F)(F)F)cn3)cc2)nc(OC)n1 [Example I-88],,,at most 15%,at most 16%
COc1nccc(CNS(=O)(=O)c2ccc(Oc3ccc(C(F)(F)F)nn3)cc2)n1 [Example I-110],,,at most 15%,at most 16%
CCc1cc(COc2ccc(S(=O)(=O)NCc3ccnc(OC)n3)cc2)on1 [Example I-112],,,at most 15%,at most 16%
COc1cc(CNS(=O)(=O)c2ccc(Oc3ncc(C(F)(F)F)cc3Cl)cc2)nc(OC)n1 [Example I-118],,,at most 15%,at most 16%
COc1nccc(CNS(=O)(=O)c2ccc(OCc3cncc(C(F)(F)F)c3)cc2)n1 [Example I-125],,,at most 15%,at most 16%
COc1nccc(CNS(=O)(=O)c2ccc(Oc3ccncc3Cl)cc2)n1 [Example I-134],,,at most 15%,at most 16%
COc1cc(OC)nc(Oc2ccc(S(=O)(=O)NCc3ccnc(OC)n3)cc2)n1 [Example I-155],,,at most 15%,at most 16%
O=S(=O)(NCc1ccncn1)c1ccc(S(=O)(=O)c2ncc(C(F)(F)F)cc2Cl)cc1 [Example I-159],,,at most 15%,at most 16%
COc1nccc(CNS(=O)(=O)c2ccc(OCc3ncccn3)cc2)n1 [Example I-161],,,at most 15%,at most 16%
COc1nccc(CNS(=O)(=O)c2ccc(Oc3ccnc(C(F)(F)F)c3)c(C)c2)n1 [Example I-167],,,at most 15%,at most 16%
COc1nccc(CNS(=O)(=O)c2ccc(Oc3ccc(N(C)C)nc3)cc2)n1 [Example I-172],,,at most 15%,at most 16%
COc1nccc(CNS(=O)(=O)c2ccc(Nc3ncc(C(F)(F)F)cc3Cl)cc2)n1 [Example I-173],,,at most 15%,at most 16%

# From patent publication US20110039693A1, “Pyrimidylmethyl Sulfonamide Compounds” (BASF SE, priority 2008, published 2011)
